Assay [1] addresses Karyopherin beta2 (Kapβ2), full length, wild type (human) (UniProt Q92973). In words: GST pull-down (FIG. 6E).
Assay [2] has the same target. In words: GST pull-down, Coomassie Blue (FIG. 6C).
The target in assay [3] is T1, Kapβ2 W460A/W730A.
T1 sequence: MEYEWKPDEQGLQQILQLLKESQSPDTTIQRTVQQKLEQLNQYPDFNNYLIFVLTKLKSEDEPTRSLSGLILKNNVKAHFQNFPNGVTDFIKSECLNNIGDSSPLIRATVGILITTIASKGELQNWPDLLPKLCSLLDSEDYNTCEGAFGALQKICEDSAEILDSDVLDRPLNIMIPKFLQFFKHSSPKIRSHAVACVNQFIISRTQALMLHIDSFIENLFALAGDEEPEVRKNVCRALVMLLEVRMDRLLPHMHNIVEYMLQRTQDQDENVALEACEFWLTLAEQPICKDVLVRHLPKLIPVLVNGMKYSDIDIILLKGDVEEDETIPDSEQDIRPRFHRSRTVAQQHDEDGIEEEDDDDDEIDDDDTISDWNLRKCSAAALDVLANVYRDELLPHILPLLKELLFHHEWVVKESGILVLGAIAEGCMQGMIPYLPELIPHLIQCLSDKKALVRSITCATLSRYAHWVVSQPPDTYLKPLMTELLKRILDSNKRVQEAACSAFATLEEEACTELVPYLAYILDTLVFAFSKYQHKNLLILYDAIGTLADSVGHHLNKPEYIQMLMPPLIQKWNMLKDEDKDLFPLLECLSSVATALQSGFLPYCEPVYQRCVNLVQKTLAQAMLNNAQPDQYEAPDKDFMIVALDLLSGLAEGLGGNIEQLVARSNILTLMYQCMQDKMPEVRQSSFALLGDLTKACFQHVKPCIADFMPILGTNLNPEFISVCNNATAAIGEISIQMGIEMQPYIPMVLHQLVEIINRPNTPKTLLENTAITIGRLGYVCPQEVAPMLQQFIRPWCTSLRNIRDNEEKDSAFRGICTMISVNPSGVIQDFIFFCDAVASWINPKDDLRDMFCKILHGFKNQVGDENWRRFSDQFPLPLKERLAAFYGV
The assay is described as follows: pull-down: Kapβ2 mutant added to immobilized GST-NLS, SDS-PAGE, stained gel.

By UniProt entry, the sequences of proteins in these tests, tags left out. Residues count along the entry.
UniProt P49761: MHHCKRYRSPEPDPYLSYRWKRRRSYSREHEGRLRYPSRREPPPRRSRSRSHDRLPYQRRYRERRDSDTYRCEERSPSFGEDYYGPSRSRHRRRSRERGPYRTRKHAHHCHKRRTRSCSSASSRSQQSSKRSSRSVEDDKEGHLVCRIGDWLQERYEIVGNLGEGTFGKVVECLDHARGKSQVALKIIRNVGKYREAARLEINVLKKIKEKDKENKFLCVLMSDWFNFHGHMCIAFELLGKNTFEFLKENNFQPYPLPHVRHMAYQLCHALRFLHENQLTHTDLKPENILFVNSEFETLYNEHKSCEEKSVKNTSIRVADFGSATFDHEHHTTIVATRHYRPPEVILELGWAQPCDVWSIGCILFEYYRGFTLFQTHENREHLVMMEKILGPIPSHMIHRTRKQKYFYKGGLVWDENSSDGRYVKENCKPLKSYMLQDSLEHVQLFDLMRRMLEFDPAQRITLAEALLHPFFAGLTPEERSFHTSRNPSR
UniProt O94992, residues 140-170: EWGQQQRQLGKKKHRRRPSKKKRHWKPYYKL
UniProt Q07666, residues 410-443: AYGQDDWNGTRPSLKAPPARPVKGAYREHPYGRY
UniProt P67809, residues 171-207: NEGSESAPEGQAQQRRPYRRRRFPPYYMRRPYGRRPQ
UniProt O95416: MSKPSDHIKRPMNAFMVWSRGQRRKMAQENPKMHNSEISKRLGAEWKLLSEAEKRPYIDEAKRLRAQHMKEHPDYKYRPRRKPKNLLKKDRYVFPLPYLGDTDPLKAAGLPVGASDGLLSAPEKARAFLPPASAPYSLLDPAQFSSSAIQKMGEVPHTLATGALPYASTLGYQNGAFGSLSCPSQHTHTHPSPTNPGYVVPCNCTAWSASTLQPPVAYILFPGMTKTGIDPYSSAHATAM

Results are given in words; binding and its absence hold for the method and conditions named. Binding seen in cells or lysates may run through a third protein. Some results given as binding are weak or reduced against the parent protein; the word gives no strength.

Consider “GST-Clk3, full length (from UniProt P49761 1-490)”, for which the binding entry in assay [1] was “binds”.
As to “GST-NLS of HMBA-inducible protein (from UniProt O94992 140-170)”, the binding entry in assay [2] is reported as “binds”.
“GST-NLS of SAM68 (from UniProt Q07666 410-443)”: the binding result in assay [2] is “binds”.
Take “GST-NLS of Y-box binding protein 1 (YBP1) (from UniProt P67809 171-207)”: the binding entry in assay [2] is “binds”.
Turning to “GST-Sox14, full length (from UniProt O95416 1-240)”, the binding entry in assay [1] is listed as “binds”.
As to “GST-hnRNP A1-NLS (GST-fusion of hnRNP A1 residues 257-305) (from UniProt P09651 257-305)”, the binding result in assay [3] is listed as “binds”.

(Values after patent US20080015137A1.)
